# Reference: article PMC10936183
# Chains of the proteins cited; added tags and fusions are not shown.
# UniProt O00232: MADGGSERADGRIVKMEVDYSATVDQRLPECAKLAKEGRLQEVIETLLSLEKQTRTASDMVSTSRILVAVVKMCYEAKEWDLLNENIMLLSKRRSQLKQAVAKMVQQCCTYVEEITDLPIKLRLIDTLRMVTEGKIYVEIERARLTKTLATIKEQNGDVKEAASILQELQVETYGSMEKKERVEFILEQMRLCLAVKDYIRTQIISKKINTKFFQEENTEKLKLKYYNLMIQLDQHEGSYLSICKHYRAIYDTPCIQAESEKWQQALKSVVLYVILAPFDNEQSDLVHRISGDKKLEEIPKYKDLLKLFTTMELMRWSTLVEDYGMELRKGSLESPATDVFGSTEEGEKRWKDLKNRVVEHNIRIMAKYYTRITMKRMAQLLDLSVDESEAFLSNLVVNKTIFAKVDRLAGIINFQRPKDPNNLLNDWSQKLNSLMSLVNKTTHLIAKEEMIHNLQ
# UniProt P08962: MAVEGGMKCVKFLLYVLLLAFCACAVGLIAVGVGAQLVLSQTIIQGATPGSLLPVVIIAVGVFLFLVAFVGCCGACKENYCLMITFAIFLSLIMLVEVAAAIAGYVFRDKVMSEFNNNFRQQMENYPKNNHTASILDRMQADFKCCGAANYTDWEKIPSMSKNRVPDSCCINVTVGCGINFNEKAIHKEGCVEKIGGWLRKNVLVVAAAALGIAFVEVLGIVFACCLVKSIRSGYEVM
# Results are given in words; binding and its absence hold for the method and conditions named. In cells and extracts the contact can be indirect. Some entries that bind do so weakly or less than the wild type.
# Target: PSMD12-GFP (UniProt O00232)
# Test: co-IP; HEK293T transfected with a GFP-tagged bait (prey endogenous or co-transfected); lysed in NP-40 lysis buffer at 48 hpt; anti-GFP beads, 4 h or overnight at 4°C; Western blot (Fig. 3C, 4C, 4D, 4H; Fig. 5B in CD63-knockout HEK293T-sgCD63 cells)
substance,measurement,value
endogenous CD63 (from UniProt P08962 1-238),binding,binds
